From publication doi:10.1101/2025.05.21.655431 come the findings set out here.

Sequences of proteins named here, by UniProt entry; tags and fusion partners are left off. A change or cut given only in a name is not applied to a line headed by its entry.
UniProt Q9FGZ4: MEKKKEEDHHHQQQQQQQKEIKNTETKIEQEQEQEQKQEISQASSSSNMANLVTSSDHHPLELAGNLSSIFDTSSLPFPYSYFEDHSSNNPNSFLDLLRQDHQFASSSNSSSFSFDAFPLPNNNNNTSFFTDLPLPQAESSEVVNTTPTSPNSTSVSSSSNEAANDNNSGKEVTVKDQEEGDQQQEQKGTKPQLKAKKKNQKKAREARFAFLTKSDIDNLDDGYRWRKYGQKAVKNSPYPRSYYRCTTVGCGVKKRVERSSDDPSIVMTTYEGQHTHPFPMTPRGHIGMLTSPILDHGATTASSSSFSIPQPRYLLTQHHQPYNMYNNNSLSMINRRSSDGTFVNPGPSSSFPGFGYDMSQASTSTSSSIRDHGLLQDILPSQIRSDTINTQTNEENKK

For data set [1], the target named is WRKY48 (Arabidopsis thaliana) (UniProt Q9FGZ4). Kind of data set: EMSA. The note with it: unphosphorylated, compared with MPK3-phosphorylated; residues 1-399.
Data set [2] deals with phospho-WRKY48 (MPK3-phosphorylated) (Arabidopsis thaliana) (UniProt Q9FGZ4). Kind of data set: EMSA. The note with it: MPK3-phosphorylated, significantly higher than unphosphorylated; residues 1-399.

For at least one entry, the source does not settle the construct or the ends of the probe. For some assays here: The comparison behind a weaker result is the experiment's own reference, which may not be listed here.

For the sequence “TAAATCGCATCGTGACCGGTCATAAAAAGACACGTGTCGTCATCGCTATCCAAATAATTGACAAACTCGAAGCCGCCAAGGG (double strand) [CIPK6 promoter P1+P2]”, the binding result in data set [1] is recorded as “binds more weakly”; in data set [2], “binds”.
